# This is one part of the list. Shown are side measurements of this screen, not its main read-out; they come without a call. Compounds called inactive in the main read-out are mostly missing here. Potencies come from curve fits of mixed quality, noted in brackets.
# Test: qHTS Assay for Lipid Storage Modulators in Drosophila S3 Cells;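 as to cell number change: cells counted by Cell Tracker Red CMTPX staining in the red channel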
# Conditions: BODIPY lipid droplet fluorescence, 18-24 h; for cell number change: measured here: cell count max response, cells fed with added oleic acid
# Method in brief: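 Drosophila S3 cells got compounds at several concentrations plus oleic acid (400 uM solution). Laser-scanning cytometry with 488 nm excitation read lipid droplets at 500-530 nm and cells at 575-640 nm. Percent activity was relative to 20 uM Triacsin C.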
# [1] = measured here: lipid fluorescence (Fed channel) AC50, cells fed with added oleic acid
# [2] = measured here: cell number channel AC50, cells fed with added oleic acid
SMILES,cell number change,AC50 [1],AC50 [2]
COc1cccc(/C=N/NC(=O)CC(C)O)c1OC/C=C/c1ccccc1 (stereo unspecified),-23.7%,–,–
Cc1nc(NCc2ccco2)c2c(C)c(C)sc2n1,9.51%,"2.06 µM [rising, partial curve]",–
O=C(COc1cc2oc(=O)c3c(c2cc1Cl)CCC3)NCC(O)c1ccccc1 (stereo unspecified),-24.2%,"29.1 µM [falling, single point]","0.184 µM [falling, full curve, poor fit]"
NS(=O)(=O)c1cccc(NC(=O)CCc2ccc(S(=O)(=O)N3CCOCC3)cc2)c1,5%,–,–
NC(=O)c1nsc(C(=O)N(c2ccc(F)cc2)C(C(=O)NCC2CCCO2)c2c[nH]c3ccccc23)c1N (stereo unspecified),-4.35%,–,–
Cc1ccc(NC(=O)Cn2c(CCC(=O)O)ccc2-c2cccs2)cc1,21.2%,"0.00461 µM [falling, full curve, poor fit]",–
CC(Sc1ccccc1)C(=O)Nc1ccc(N2CCOCC2)cc1 (stereo unspecified),–,–,"3.66 µM [rising, partial curve]"
Cc1nn(-c2ccccc2)c2[nH]c(=O)cc(C(F)F)c12,-10.2%,"8.2 µM [rising, partial curve]",–
CCc1ccc(NC(=S)/N=C(\N)Nc2nc(C)c3cc(CC)ccc3n2)cc1,-59.4%,–,"29.1 µM [falling, single point]"
COc1cc(-c2nc3cnccn3c2NC(C)(C)CC(C)(C)C)ccc1O,-19%,"2.91 µM [falling, full curve]",–
CC(C)c1onc(C(=O)N(C)Cc2ccccc2)c1[N+](=O)[O-],–,–,"0.0058 µM [rising, full curve, poor fit]"
COc1ccccc1CC(=O)Nc1cccc(S(=O)(=O)N2CCOCC2)c1,16.2%,"6.51 µM [rising, partial curve, poor fit]",–
O=C(O)CCC(=O)N1N=C(c2ccccc2)CC1c1ccc(Br)cc1 (stereo unspecified),-11.5%,"6.51 µM [rising, single point]",–
O=C(O)CCc1ccc(-c2cccs2)n1-c1ccc(C(=O)O)cc1,0.759%,"0.00461 µM [rising, full curve, poor fit]",–
O=C(NCc1cccc(Cl)c1)c1ccc(N2CC3CC(C2)c2cccc(=O)n2C3)c(NC(=O)c2cccnc2)c1 (stereo unspecified),20.5%,–,–
Cc1ccc2c(c1)N(C(=O)CCC(=O)NC1CCCCCC1)CC(C)O2 (stereo unspecified),9.22%,"25.9 µM [falling, single point]",–
Cc1n[nH]c(=S)n1/N=C/c1ccc(OCc2ccc(Cl)cc2)cc1,-12.8%,"2.31 µM [rising, partial curve, poor fit]",–
CCN(CC)S(=O)(=O)c1ccc(C(=O)Nc2nnc(C(C)C)s2)cc1,–,–,"2.31 µM [rising, single point]"
CN(C)C(CNC(=O)c1cccnc1Sc1ccccc1)c1ccco1 (stereo unspecified),21%,"6.51 µM [falling, single point]",–
CN1CCN(C(=O)c2ccccc2NC(=O)c2sc3ccccc3c2Cl)CC1,-18.5%,"0.651 µM [falling, partial curve, poor fit]",–
O=C(CN(C(=O)CNC(=O)c1cccs1)c1ccccc1F)NC1CCCCC1,11.8%,–,–

# An excerpt from above, showing only cell number change.
SMILES,cell number change
Cc1nn(-c2ccccc2)c2[nH]c(=O)cc(C(F)F)c12,-10.2%
CCc1ccc(NC(=S)/N=C(\N)Nc2nc(C)c3cc(CC)ccc3n2)cc1,-59.4%
COc1cc(-c2nc3cnccn3c2NC(C)(C)CC(C)(C)C)ccc1O,-19%

# Next part.

SMILES,cell number change,AC50 [1],AC50 [2]
O=[N+]([O-])c1ccc2nc(-c3ccccn3)[nH]c2c1,-33.5%,"16.4 µM [falling, partial curve]",–
Cc1[nH]c2ccccc2c1Cc1nnc(SCC(N)=O)o1,17.6%,"3.26 µM [falling, single point]",–
COc1ccc(CC(=O)NCC(=O)N=Nc2c(O)[nH]c3ccccc23)cc1,-13.2%,"14.6 µM [rising, partial curve]",–
O=C1C(Cl)=C(NCc2cccnc2)C(=O)c2ccccc21,-7.09%,"29.1 µM [falling, single point]",–
CSc1ccc(/C=N/Nc2nc(C)cc(C)n2)cc1,34.5%,"2.91 µM [rising, full curve, poor fit]","0.366 µM [rising, full curve]"
NCCCCCC(=O)N/N=C/c1coc2ccccc2c1=O,–,"7.31 µM [falling, partial curve]",–
Cc1csc(NC(=O)C2C3C=CC(C3)C2C(=O)O)n1 (stereo unspecified),-66.4%,"29.1 µM [falling, partial curve]","23.1 µM [falling, partial curve, poor fit]"
COC(=O)c1cc(C)sc1NC(=O)c1cccnc1,31.3%,"0.731 µM [falling, single point]","29.1 µM [rising, single point]"
CCCc1cc(=O)[nH]c(NCc2ccc(Cl)cc2)n1,-51.9%,"29.1 µM [falling, single point]","20.6 µM [falling, single point]"
CC(=O)c1cccc(NC(=O)CCCCCn2nnc3ccccc3c2=O)c1,8.51%,"0.651 µM [falling, partial curve, poor fit]",–
O=C(C1CCN(S(=O)(=O)c2ccc(F)cc2)CC1)N1CC=C(c2ccccc2)CC1,–,"6.51 µM [rising, single point]",–
NC(=S)n1[nH]c(-c2ccc([N+](=O)[O-])cc2)c(N=Nc2cccc(Cl)c2)c1=O,-35%,–,"32.6 µM [falling, single point]"
Cn1cnnc1SCC(=O)c1ccc2c(c1)OCCO2,–,"6.51 µM [falling, single point]",–
O=C(/C=C/c1cccc(C(F)(F)F)c1)N1CCN(c2ccccn2)CC1,17.9%,"6.51 µM [falling, single point]",–
COC(C)(C)[C@]12CC(O)(c3ccccc3)ON1[C@H]1CCCCC1N2O (stereo partly specified),2.59%,"32.6 µM [falling, partial curve, poor fit]",–
O=C1NC(c2ccccc2)Oc2ccccc21 (stereo unspecified),8.79%,–,–
CCOC(=O)CN1CCc2c(C)nc3c(-c4ccc(OC)c(OC)c4)cnn3c21,–,"6.51 µM [rising, single point]",–
O=C(OCc1nnc(-c2ccccc2)o1)C1CC(=O)N(c2ccccc2)C1 (stereo unspecified),7.92%,"6.51 µM [falling, single point]",–
COc1ccc(OCC(=O)NCCCNC(=O)COc2ccc(OC)cc2)cc1,-3.63%,"6.51 µM [rising, partial curve, poor fit]",–
CN(C)C(=O)C12CCC(C)(C(=O)C1Br)C2(C)C (stereo unspecified),-22.5%,–,–
COc1cccc(C2=CC(=O)C[C@H](c3ccc4c(c3)OCO4)C2)c1OC,-30.2%,"0.58 µM [falling, partial curve]","0.651 µM [falling, partial curve, poor fit]"

# A different layout for some results above:
SMILES	cell number change	AC50 [1]	AC50 [2]
O=C(NCc1cccc(Cl)c1)c1ccc(N2CC3CC(C2)c2cccc(=O)n2C3)c(NC(=O)c2cccnc2)c1 (stereo unspecified)	20.5%	–	–
Cc1ccc2c(c1)N(C(=O)CCC(=O)NC1CCCCCC1)CC(C)O2 (stereo unspecified)	9.22%	25.9 µM [falling, single point]	–

# Next results follow:

SMILES,cell number change,AC50 [1],AC50 [2]
COc1ccc(/C=C(/NC(=O)c2ccccc2)C(=O)NCc2ccco2)cc1,3.85%,–,–
CCOC(=O)c1cc(-c2ccccc2C)nn1Cc1cc(C)no1,-26.2%,"1.46 µM [rising, partial curve, poor fit]",–
N#CC(C(=O)Nc1ccc(Cl)c(Cl)c1)=C1Nc2ccccc2N1,-72.2%,"23.1 µM [falling, partial curve]","25.9 µM [falling, partial curve]"
Cc1ccc(NCc2nnc(SCC(=O)NCCc3ccccc3)n2C)cc1,45.1%,–,"8.2 µM [rising, partial curve, poor fit]"
Cc1cc(C)c(S(=O)(=O)N2CCN(C(=O)C3CC3)CC2)c(C)c1,-2.81%,–,–
CSc1ccc(S(=O)(=O)NC2CCCCCC2)cc1,–,–,"6.51 µM [rising, single point]"
OC(CNCCNc1ncccc1C(F)(F)F)Cn1ccc2ccccc21 (stereo unspecified),-18.3%,"0.13 µM [falling, full curve, poor fit]",–
O=C(Nc1ccccc1C(=O)NC1CCCCC1)c1ccccc1,28%,"2.06 µM [rising, full curve]",–
CCN(CC)S(=O)(=O)c1ccc(NC(=O)CC(NC(C)=O)c2ccccc2)cc1 (stereo unspecified),11.2%,"6.51 µM [falling, single point]",–
CCOC(=O)N1CCC(Nc2c(OCC)c(=O)c2=O)CC1,18.1%,"1.16 µM [rising, single point]",–
COc1ccc(N(CC(=O)N2CCCCCC2)S(=O)(=O)c2ccccc2[N+](=O)[O-])c(OC)c1,-21.9%,"6.51 µM [falling, single point]",–
O=C1C2C(C(=O)N1CCc1ccccc1)C1C=CC2C12CC2 (stereo unspecified),–,"0.058 µM [falling, full curve, poor fit]",–
CCC(Sc1nc2ncnc(N)c2[nH]1)C(=O)O (stereo unspecified),8.3%,–,"5.8 µM [rising, single point]"
COCC(=O)N/N=C\c1cccc(OC)c1OC/C=C/c1ccccc1,-48.5%,–,"29.1 µM [falling, single point]"
CCCN(CC(=O)Nc1ccccc1C)C(=O)C1CC(=O)N(c2cccc(C)c2C)C1 (stereo unspecified),-11.8%,"20.6 µM [rising, partial curve]",–
CCOc1cc(-n2cnnn2)c(OCC)cc1NC(=O)c1cnccn1,22.6%,"6.51 µM [rising, single point]",–
Cc1cc(-c2ccccc2)c2c3c(cn2n1)c(=O)n(C)c(=O)n3C,–,"0.146 µM [falling, full curve, poor fit]",–
O=C1N(c2ccccc2C(F)(F)F)OC1(Cc1ccccc1)c1ccccc1 (stereo unspecified),-57.3%,–,"16.4 µM [falling, partial curve]"
CCOC(=O)c1[nH]c(C)c(C(=O)NCCc2ccc(OC)cc2)c1C,58%,"5.17 µM [rising, full curve]","5.17 µM [rising, full curve]"

# — PubChem BioAssay AID2685 (National Center for Advancing Translational Sciences (NCATS), 2010)
